# From PubChem BioAssay AID1259354 (Paczesny and Yang Labs, IUPUI and University of Michigan, 2018)
# Sequences of proteins named here, by UniProt entry; tags and fusion partners are left off. A change or cut given only in a name is not applied to a line headed by its entry.
# UniProt Q01638: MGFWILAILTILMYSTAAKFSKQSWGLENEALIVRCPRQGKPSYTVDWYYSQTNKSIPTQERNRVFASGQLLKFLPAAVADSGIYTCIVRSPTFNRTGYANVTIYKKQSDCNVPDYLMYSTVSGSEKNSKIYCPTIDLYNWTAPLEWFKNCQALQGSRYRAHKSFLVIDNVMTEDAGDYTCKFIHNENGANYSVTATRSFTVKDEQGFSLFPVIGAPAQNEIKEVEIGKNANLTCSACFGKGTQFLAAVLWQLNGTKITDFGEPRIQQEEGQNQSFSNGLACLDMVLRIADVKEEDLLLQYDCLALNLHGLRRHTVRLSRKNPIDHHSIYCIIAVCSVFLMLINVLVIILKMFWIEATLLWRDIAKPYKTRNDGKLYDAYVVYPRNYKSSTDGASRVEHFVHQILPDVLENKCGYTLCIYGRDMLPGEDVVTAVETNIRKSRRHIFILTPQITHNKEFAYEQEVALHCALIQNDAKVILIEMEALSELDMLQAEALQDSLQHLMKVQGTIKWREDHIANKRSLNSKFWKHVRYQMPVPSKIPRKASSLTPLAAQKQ
# Among all 78,000 compounds or so, about 1,800 (2.3%) were called active. This list was built around the results that the source calls inconclusive (neither active nor inactive); the mix of calls is not that of the screen. Cut-off read from the data, not from the text of the source: active = inhibition above about 30%; inconclusive = mostly about 10% to 28%; inactive = weaker than that.
# Molecular target: Interleukin-1 receptor-like 1 (Homo sapiens) (UniProt Q01638)
# Assay: blocks human ST2 binding to IL-33, primary screen, biochemical, AlphaLISA (AID 1259354)
# Conditions: AlphaLISA ST2-Fc/biotin-IL-33 interaction, 1 h; at 17 µM, stronger effect = higher value
row,SMILES,inhibition
1,O=C(CCCc1nc(-c2ccco2)no1)N1CC2CC3CC1C[C@@H](C3)C2,inconclusive: 13%
2,COc1cccc(N(CC(=O)N2CCOCC2)S(C)(=O)=O)c1,inactive
3,CCCN1CC(NC(=O)c2nc3ccccc3c(=O)[nH]2)CC1=O (configuration not stated),inconclusive: 11%
4,COC(=O)[C@H](Cc1ccc(OC)cc1)NC(=O)[C@H]1CN(C(=O)c2cccnc2)CCN1C(=O)c1cccs1,inactive
5,CC(Cc1ccc2c(c1)OCO2)c1nccn1CCc1cccnc1 (configuration not stated),inconclusive: 12%
6,CCC1=NC(c2ccc(Br)cc2)N(O)C1(C)C (configuration not stated),inconclusive: 11%
7,CCN(CC)S(=O)(=O)c1cc(C(=O)Nc2ccc(C(=O)O)cc2)ccc1C,inactive
8,O=C(Nc1cccc([N+](=O)[O-])c1)c1c(Br)sc2c1CCCC2,inconclusive: 16%
9,COc1cc2c(cc1NC(C)=O)oc1ccccc12,inconclusive: 16%
10,CC1=C[C@@H](CNC(=O)NCc2ccccc2)[C@H](C(C)C)C[C@H]1CC(=O)NCCN1CCOCC1,inconclusive: 18%
11,Cc1ccccc1NC(=O)c1cccc(Br)c1,inactive
12,Cc1cc(C)nc(NS(=O)(=O)c2ccc(Cl)cc2)n1,inactive
13,Cc1ccc(-c2noc(CCC(=O)NC(C)c3ccc4c(c3)OCCO4)n2)cc1 (configuration not stated),inactive
14,CN(CCNC(=O)Cc1ccccn1)S(C)(=O)=O,inactive
15,COc1ccc(OC)c(C(=O)N2CC(=O)N(Cc3ccccc3)CC(OC)C2)c1 (configuration not stated),inconclusive: 15%
16,CN(C)CCN(Cc1cccs1)C(=O)Cn1nc(-c2ccc(Cl)cc2)ccc1=O,inactive
17,Cc1ccnc(NC(c2cccnc2)c2ccc3ccc(C)nc3c2O)c1 (configuration not stated),inconclusive: 15%
18,COc1ccc(-n2c(/C=C/c3cccc(OC)c3OC)nc3ccccc3c2=O)cc1,inconclusive: 21%
19,COc1cccc(NC(=O)NC[C@H]2O[C@@H](CO)[C@@H](O)[C@H]2N(C)CCc2ccccc2)c1,inconclusive: 10%
20,Cc1cnn(Cc2ccc(Cl)cc2)c1NC(=O)c1c(C)oc2c1C(=O)CCC2,inconclusive: 15%
21,O=C(c1cccnc1-c1ccc2c(c1)OCCO2)N1CCCC1,inactive
22,Cc1ncc2c(c1-c1noc(CCc3ccc(F)cc3)n1)CCNC2,inconclusive: 11%
23,Fc1ccc(CN2CCc3ccccc3C2)c(F)c1,inactive
24,CC1(C)CC(=O)c2c(nn(-c3ccccc3)c2-c2ccc(O)cc2)C1,inconclusive: 29%
25,C=CCNC(=O)N[C@H]1CCN2C(=O)c3ccccc3NC(=O)[C@@H]2C1,inconclusive: 17%

row,SMILES,inhibition
1,O=[N+]([O-])c1ccc(N2CCN(Cc3ccc4c(c3)OCO4)CC2)cc1,inconclusive: 24%
2,CCCn1nccc1C(=O)NCc1cc(F)cc2c(C)c(C)[nH]c12,inconclusive: 15%
3,CC(CCN(C)Cc1ncc[nH]1)c1ccccc1 (configuration not stated),inactive
4,CCc1ncc(C(=O)N2CC[C@@H](c3ccc4ccccc4c3)[C@H](O)C2)cn1,inconclusive: 20%
5,Cc1ccc(Cn2c(CCNC(=O)Nc3ccccc3Br)nc3cccnc32)cc1,inconclusive: 16%
6,COc1cccc(C(=O)Nc2cccc(C)c2)c1,inactive
7,O=C(/C=C1\Sc2ccccc2N(Cc2ccccc2F)C1=O)NCc1ccc2c(c1)OCO2,inconclusive: 22%
8,O=C(Nc1nccs1)c1cccc(NS(=O)(=O)c2ccc([N+](=O)[O-])cc2)c1,inactive
9,Cn1c(=O)c2c(ncn2Cc2ccccc2C#N)n(C)c1=O,inactive
10,CN(C)CC1(O)CCCN(C(=O)c2cccc3cc[nH]c23)C1 (configuration not stated),inactive
11,CCN(CC)C(=O)[C@@H]1C[C@@H](N)CN1C(=O)c1csc(-c2cccs2)n1,inconclusive: 15%
12,Cc1ccccc1-c1noc(CN2CCCN(c3ccncc3C)CC2)n1,inconclusive: 14%
13,COc1cccc2c1OCC(C(=O)N1C[C@@H]3[C@@H]4CC[C@@H](C4)[C@@H]3C1)C2 (some centres not stated),inactive
14,Cc1nc2nc(SCC(=O)N3CCOCC3)nn2c(C)c1Cc1ccccc1,inconclusive: 12%
15,Cc1ccc(S(=O)(=O)Nc2cccc3cccnc23)cc1,inconclusive: 14%
16,COc1cccc(CNc2ccc3c(c2)ncn3C)c1O,inactive
17,COC(=O)Nc1ccc(C)cc1Br,inconclusive: 12%
18,Cc1ccc(S(=O)(=O)CC(=O)Nc2sc3c(c2-c2nc4ccccc4s2)CCN(C)C3)cc1,inconclusive: 12%
19,O=C(c1ccncc1)N(c1ccc2oc3c(c2c1)CCCC3)S(=O)(=O)c1ccc(F)cc1,inconclusive: 23%
20,CC(=O)c1ccc(OC(=O)N2CCCCC2)cc1,inactive
21,NC(=O)C1CCCN(c2nc(-c3ccccc3)cs2)C1 (configuration not stated),inconclusive: 14%
22,C=CCN=Cc1c(NCC=C)nc2ccc(C)cn2c1=O,inconclusive: 15%
23,CC1=Nc2ccccc2C1=Cc1nc(-c2ccc([N+](=O)[O-])cc2)oc1O,inconclusive: 15%
24,CCn1ncnc1CN(Cc1ccncc1)Cc1ccc(F)cc1,inconclusive: 15%
25,O=C(/C=C/c1cc(F)cc(F)c1)NCC1CCC2(CCN(Cc3cccnc3)CC2)O1 (configuration not stated),inconclusive: 10%

# Two entries from above in another layout:
row	SMILES	inhibition
10	CC1=C[C@@H](CNC(=O)NCc2ccccc2)[C@H](C(C)C)C[C@H]1CC(=O)NCCN1CCOCC1	inconclusive: 18%
11	Cc1ccccc1NC(=O)c1cccc(Br)c1	inactive

# More compounds follow.

row,SMILES,inhibition
1,CC12c3ccccc3C(c3ccccc31)[C@@H]1C(=O)N(c3ccc(C(=O)O)cc3)C(=O)C12 (some centres not stated),inconclusive: 13%
2,CCCCN(Cc1nc2ccccc2[nH]1)Cc1ccco1,inconclusive: 14%
3,CCC(=O)Nc1ccc(-c2nc3ncccc3o2)cc1,inactive
4,Cc1ccc(C)n1-c1cccc(C(=O)O)c1,active: 96%
5,Cc1nc(=O)[nH]c(C)c1CCC(=O)N1CCc2c(ncnc2N(C)C)C1,inconclusive: 12%
6,CCc1nc(N)sc1C(=O)N1CCC(O)(c2ccccc2C)C1 (configuration not stated),inconclusive: 14%
7,CCc1nccn1CCC(=O)Nc1ccc(NC(=O)c2coc(C)c2)cc1,inactive
8,COc1cc(/C=C2\C(=O)NN(c3ccccc3)C2=O)ccc1OCc1ccccc1C#N,inconclusive: 13%
9,CN(C)c1ccc(CN2CCN(c3ncccn3)CC2)cc1,inconclusive: 20%
10,CCOC(=O)C1C(=O)C=C(c2ccc(OC)c(OC)c2)CC1c1ccc(OC)cc1 (configuration not stated),inconclusive: 15%
11,CN(CCN1CCCCC1=O)Cc1cc2n(n1)CCNC2,inactive
12,Cc1ccc(S(=O)(=O)N(Cc2ccc([N+](=O)[O-])cc2)C(C)(C)C)cc1,inactive
13,Cc1cccc(Cn2cnc3c(oc4ccccc43)c2=O)c1,inconclusive: 10%
14,Oc1oc(-c2ccccc2F)nc1C=Nc1cccc(F)c1,inconclusive: 12%
15,Cc1cccc(NC(=O)C(NC(=O)C2CCC(C)CC2)C(C)C)n1 (configuration not stated),inactive
16,COc1ccc(CCNC(=O)CCS(=O)(=O)c2ccc(Br)s2)cc1OC,inactive
17,Clc1ccc2nc(CSc3nnnn3-c3ccccc3)c(Cl)n2c1,inactive
18,OCC1CCCN1Cc1cccc(Cl)c1 (configuration not stated),inactive
19,Cc1cc([N+](=O)[O-])nn1CCCC(=O)Nc1c(F)cc(F)cc1Br,inconclusive: 12%
20,CC(=O)NC[C@H]1O[C@@H](CO)[C@@H](O)[C@H]1N(C)CCc1ccccc1,inconclusive: 26%
21,OCc1ccc(-c2nccn2Cc2cc3ccccc3s2)o1,inactive
22,CN1C(N)=NC(=O)/C1=C/c1cc(Br)c(O)c(Br)c1,inactive
23,CCc1csc(CCNC(=O)C2CCC(=O)N(Cc3cccc(C(F)(F)F)c3)C2)n1 (configuration not stated),inconclusive: 13%
24,O=C(NC1CCCCCCC1)c1ccc2nc3ccccc3c(=O)n2c1,inactive
25,O=C1CCC(C(=O)N2CCC(c3nc4ccccc4o3)CC2)CN1CCN1CCOCC1 (configuration not stated),inactive

row,SMILES,inhibition
1,COc1ccccc1-c1cc(Cn2cc(-c3ccc(C)o3)nn2)on1,inactive
2,Cc1ccc(C(=O)Oc2ccccc2NC2=NS(=O)(=O)c3ccccc32)cc1,inconclusive: 24%
3,O=C(CC[C@@H]1CNC(=O)[C@@H]2C[C@H](NC(=S)NCCN3CCOCC3)CN12)NCc1ccccc1,active: 31%
4,O=C(NCCc1ccccc1)c1ccc2nc[nH]c2c1,inactive
5,COc1cccc(CN2CCCC(O)(CNC3Cc4ccccc4C3)C2=O)c1 (configuration not stated),inconclusive: 11%
6,CNS(=O)(=O)c1ccc(Oc2ccc(S(=O)(=O)NC)cc2)cc1,inconclusive: 12%
7,CC12OC(=N)C(C#N)(C1c1ccccc1)C(C#N)(C#N)C(c1ccccc1)O2 (configuration not stated),inconclusive: 20%
8,FC(F)(F)CCc1ccnc(NCC2OCCc3ccccc32)n1 (configuration not stated),inconclusive: 10%
9,Cc1cc(I)ccc1N1C(=O)CC(Sc2ncccc2C(=O)O)C1=O (configuration not stated),inactive
10,CCN1CCN(c2nnc(-c3ccccc3)c3ccccc23)CC1,inconclusive: 16%
11,COc1ccc(-n2c(/C=C/c3cccc(OC)c3OC)nc3ccccc3c2=O)cc1OC,inconclusive: 13%
12,CCc1nc(C)c(C(=O)N2CCOC(c3ccc(Cl)c(Cl)c3)C2)o1 (configuration not stated),inactive
13,Cc1cc(NC(=O)c2ccccc2Br)nc2c1c(=O)oc1ccccc12,inactive
14,Cc1ccc(CNC(=O)c2cc(-c3ccc(Cl)s3)nc3ccccc23)o1,inactive
15,CSc1nc2c([nH]c3ccccc32)c(=O)n1-c1ccc(F)cc1,inconclusive: 20%
16,Cn1c(=O)c2[nH]c(-c3ccc(S(=O)(=O)O)cc3)nc2n(C)c1=O,inconclusive: 22%
17,O=C(CSc1nc2c(c(=O)n1-c1ccc(Cl)cc1)SCC2)N1CCCc2ccccc21,inactive
18,Cc1ccc(C(=O)N(c2ccc(C(C)C)cc2)C2C=CS(=O)(=O)C2)cc1C (configuration not stated),inactive
19,Oc1oc(-c2ccc(Br)cc2)nc1C=Nc1ccccc1I,inconclusive: 13%
20,COc1ccccc1/C=C1\C(=O)NN(c2ccccc2)C1=O,inconclusive: 10%
21,COc1ccc(/C=C2\SC(N3CCCC3)=NC2=O)cc1,inactive
22,CC1CCN(c2nc3c(c(=O)n(C)c(=O)n3C)n2Cc2c(F)cccc2Cl)CC1,inactive

# Rewritten bar-delimited: four of the compounds above.
row | SMILES | inhibition
24 | CCn1ncnc1CN(Cc1ccncc1)Cc1ccc(F)cc1 | inconclusive: 15%
25 | O=C(/C=C/c1cc(F)cc(F)c1)NCC1CCC2(CCN(Cc3cccnc3)CC2)O1 (configuration not stated) | inconclusive: 10%
1 | CC12c3ccccc3C(c3ccccc31)[C@@H]1C(=O)N(c3ccc(C(=O)O)cc3)C(=O)C12 (some centres not stated) | inconclusive: 13%
2 | CCCCN(Cc1nc2ccccc2[nH]1)Cc1ccco1 | inconclusive: 14%
